Source: PubChem BioAssay AID662 (National Center for Advancing Translational Sciences (NCATS), 2007)
This is one part of the list. Further columns of the screen follow, without active or inactive calls. Compounds called inactive in the main read-out are mostly missing here. Words in brackets tell the shape of the fitted curve; partial curves, single points and poor fits give uncertain potencies.

experiment: Cell signaling CRE-BLA (Fsk stim); conditions: CHO CRE-bla reporter (cAMP response element driving beta-lactamase), forskolin EC10, beta-lactamase ratio; measured here: 460 nm blue channel
Procedure, shortened: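 Using CellSensor CRE-bla CHO cells in Opti-MEM with 0.5% dialyzed FBS, compounds were titrated with EC10 NKH 477 for 3 h at 37 °C. CCF4 ratio (460/530 nm) gave %Activity; AC50 derived.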

Compound | AC50
CCOCC(=O)Nc1c(C(=O)OCC)oc2ccccc12 | 6.31 µM [rising, partial curve]
O=C(Cc1ccc(-n2cnnn2)cc1)NC12CC3CC(CC(C3)C1)C2 | 10 µM [rising, single point]
Cc1csc2ncc(C(=O)NCc3ccc4c(c3)OCO4)c(=O)n12 | 5.01 µM [rising, partial curve]
Oc1ccc(-c2nc3ncccn3c2Nc2ccc3c(c2)OCO3)cc1 | 0.0158 µM [falling, full curve, poor fit]
CCn1c2ccccc2c2cc(NC(=O)COC(=O)Cc3cn4ccsc4n3)ccc21 | 20 µM [rising, single point]
Nc1ccc(CCS(N)(=O)=O)cc1 | 5.01 µM [falling, single point]
Clc1ccc2c(N3CCCC3)ccnc2c1 | 7.94 µM [falling, partial curve]
Cc1nc(NCCO)c2nc(-c3ccccc3)n(CCN(C)C)c2n1 | 12.6 µM [rising, partial curve]
Cc1ccc(CNC(=O)c2coc(=O)c3ccccc23)o1 | 0.0251 µM [falling, full curve, poor fit]
CCCC[C@@H]1C[C@H]1C(NC(=O)c1ccc(C(F)(F)F)cc1)c1ccc(C(=O)OC)cc1 (some centres undefined) | 12.6 µM [rising, partial curve]
Cc1cc(C)c2[nH]c(=O)c(C(c3nnnn3C(C)(C)C)N3CCN(C(=O)c4ccco4)CC3)cc2c1 (centres undefined) | 3.98 µM [rising, single point]
c1ccc(-c2nc(NCCCN3CCOCC3)c3ccccc3n2)cc1 | 10 µM [rising, single point]
Cc1cc(C)n2cc(CSc3nc4cc(Cl)ccc4o3)nc2n1 | 3.16 µM [rising, partial curve]
CCNC(=O)CSc1nc2ccccc2c(=O)n1OC | 5.01 µM [falling, single point]
O=c1c(-c2ccccc2)nc2cncnc2n1Cc1ccccc1Cl | 12.6 µM [rising, partial curve]
OC(COc1cccc(OCC(O)CN2CCOCC2)c1)CN1CCOCC1 (centres undefined) | 3.98 µM [rising, single point]
Cc1ccc(-c2cc(C(=O)NCc3ccco3)c3ccccc3n2)o1 | 5.01 µM [falling, single point]
CCOc1ccc(S(=O)(=O)NCCC(=O)OCN2C(=O)c3ccccc3C2=O)cc1 | 5.01 µM [falling, single point]
CCOC(=O)c1cc2c(ccn2-c2ccc(F)cc2)n1CC(=O)N1CCN(C(=O)c2ccco2)CC1 | 2 µM [rising, partial curve]
Cc1cc2nc(-c3ccc(SCC(=O)N4CCN(C(=O)c5ccco5)CC4)nc3)[nH]c2cc1C | 2 µM [rising, partial curve]
COc1ccc(-n2c(=O)c(-c3cc(F)cc(F)c3)nc3cnc(N4CCOCC4)nc32)cc1 | 2.51 µM [rising, full curve]
Cc1noc(C)c1COC(=O)Cc1ccc(Cl)cc1 | 0.2 µM [falling, partial curve]
CC(C)c1nnc(SCC(=O)NCc2ccco2)n1C | 0.00316 µM [falling, full curve, poor fit]

Compound | AC50
Fc1cc2nc(-c3ccncc3)[nH]c2cc1F | 20 µM [rising, single point]
Cc1cccc(-c2nc(C#N)c(N3CCCCCC3)o2)c1 | 7.94 µM [rising, partial curve]
CCC(C)C(=O)Nc1cc(C(=O)OC)cc(C(=O)OC)c1 (centres undefined) | 12.6 µM [rising, partial curve]
C/C=C/Cn1c(SCc2ccc(C)cc2)nc2c1c(=O)[nH]c(=O)n2C | 15.8 µM [rising, partial curve]
COC(=O)COC(=O)c1ccc(Oc2nc(OC)nc(N(C)C)n2)cc1 | 20 µM [rising, single point]
Cc1cc(Nc2ccc(F)cc2Cl)n2nc(C)nc2n1 | 10 µM [rising, partial curve]
NC(=O)c1ccsc1NC(=O)COC(=O)C1CCCN1C(=O)c1cccs1 (centres undefined) | 2 µM [rising, single point]
CCn1c(C)c(CCC(=O)O)c(=O)n2nc(-c3ccccc3OC)cc12 | 25.1 µM [falling, single point]
Fc1ccccc1N1CCN(C(c2cccs2)c2nnnn2CCc2ccccc2)CC1 (centres undefined) | 12.6 µM [falling, partial curve, poor fit]
COc1ccccc1CCn1c(=O)c(-c2cccc(Cl)c2)nc2cncnc21 | 6.31 µM [rising, partial curve]
Cc1ccc2c(c1)c(-c1ccccc1)nc1nncn12 | 10 µM [rising, partial curve]
Cc1cc(C)c2cc(CN(Cc3cccs3)Cc3nnnn3CC3CCCO3)c(=O)[nH]c2c1 (centres undefined) | 10 µM [rising, single point]
CCOC(=O)c1cc(-c2ccc(N)cc2)sc1N | 12.6 µM [rising, single point]
CCCn1c(Sc2nnnn2-c2ccccc2)n[nH]c1=O | 1 µM [falling, partial curve, poor fit]
O=C(NCc1ccco1)c1cc2sccc2n1Cc1ccc(F)cc1 | 20 µM [falling, single point]
COc1ccc(CCNC(=O)c2nnn(-c3ccc4c(c3)OCCO4)c2N)cc1OC | 3.16 µM [rising, partial curve]
c1ccc(Cn2nnc3c(N4CCCCCC4)ncnc32)cc1 | 2.51 µM [rising, full curve]
O=C(OCc1nc2ccccc2s1)c1cccc(S(=O)(=O)N2CCOCC2)c1 | 5.01 µM [falling, single point]
CC1=C(C)CS(=O)N(c2ccc(S(N)(=O)=O)cc2)C1 (centres undefined) | 2 µM [falling, full curve]
COCCCNC(=O)c1c(N)n(-c2cccc(S(N)(=O)=O)c2)c2nc3ccccc3nc12 | 12.6 µM [rising, partial curve]
CCn1c2ccccc2c2nnc(SCc3ccccc3)nc21 | 3.16 µM [rising, partial curve]
CCOC(=O)c1ccccc1NC(=O)CN1C(=O)CCS(=O)(=O)c2ccccc21 | 0.251 µM [falling, partial curve]
CCOC(=O)CCC(=O)OCC(=O)NC(C)C1CC2CCC1C2 (centres undefined) | 3.98 µM [falling, single point]

In the list so far, these have two or more sulfur atoms:
Compound | AC50
NC(=O)c1ccsc1NC(=O)COC(=O)C1CCCN1C(=O)c1cccs1 (centres undefined) | 2 µM [rising, single point]
O=C(OCc1nc2ccccc2s1)c1cccc(S(=O)(=O)N2CCOCC2)c1 | 5.01 µM [falling, single point]
CC1=C(C)CS(=O)N(c2ccc(S(N)(=O)=O)cc2)C1 (centres undefined) | 2 µM [falling, full curve]

More structures:

Compound | AC50
O=C(NC1=NCCS1)NC12CC3CC(CC(C3)C1)C2 | 3.16 µM [falling, partial curve]
O=C(CSc1nnc(-c2cccs2)n1Cc1ccco1)Nc1ccc2c(c1)OCO2 | 5.01 µM [falling, single point]
COc1ccc(-c2nc3cnc(Nc4cccc(OC)c4)nc3n(C)c2=O)cc1 | 7.94 µM [rising, partial curve]
COc1ccccc1N1CCN(C(=O)c2cc(-c3ccc(Br)cc3)on2)CC1 | 15.8 µM [falling, partial curve, poor fit]
C=CCn1c2ccccc2c2nnc(SC(CC)C(=O)Nc3nc(C)c(C(=O)OCC)s3)nc21 (centres undefined) | 0.631 µM [rising, full curve]
COC(=O)Cn1c(=NC(=O)CSCC(=O)NC2CCCCC2)sc2cc(OC)ccc21 | 0.158 µM [falling, full curve]
C=CCc1c(C)nc(SC)nc1Nc1ccc(C(=O)O)cc1 | 10 µM [rising, partial curve]
CCCCNc1nc(C)nc2c1nc(C)n2CCC | 10 µM [rising, partial curve]
CC(C)Sc1nc(-c2cccs2)nc2c1c(=O)n(C)c(=O)n2C | 2.51 µM [rising, full curve]
Cc1cc(O)c2c(-c3ccccc3)cc(=O)oc2c1 | 25.1 µM [rising, single point]
O=C(Nc1cccc(O)c1)c1ccc(Br)cc1 | 15.8 µM [rising, partial curve, poor fit]
Oc1cc2c(cc1O)[C@H]1c3ccc(O)c(O)c3OC[C@@]1(O)C2 | 31.6 µM [falling, single point]
COC(=O)c1[nH]c2ccc(C)cc2c1NC(=O)CN1CCN(c2ccccc2)CC1 | 7.94 µM [falling, partial curve]
CC(Sc1nc(N2CCOCC2)c2c(c1C#N)CC(C)(C)OC2)C(=O)Nc1ccccc1 (centres undefined) | 10 µM [rising, partial curve]
Cc1cc(C)nc(SCc2ccccc2C#N)n1 | 12.6 µM [rising, single point]
CCC1CCCCN1C(=O)CSc1nc(N)c(NC(=O)c2ccc(OC)c(OC)c2)c(=O)[nH]1 (centres undefined) | 10 µM [rising, partial curve]
CCc1ccc(N2CC(C(=O)NC3=NCCS3)CC2=O)cc1 (centres undefined) | 3.16 µM [falling, single point]
O=C(c1ccccc1)c1cccn1CC(=O)N1CCN(c2ccc(F)cc2)CC1 | 0.00398 µM [falling, full curve]
NCCCCCc1nnc(SCC(=O)Nc2cccc(Cl)c2)o1 | 0.126 µM [rising, single point]
N#Cc1ccccc1OCC(=O)Nc1c(C(=O)C2CC2)oc2ccccc12 | 3.16 µM [rising, full curve]
O=C(Nc1nnc(Cc2ccccc2)s1)c1cccs1 | 10 µM [rising, partial curve]
O=c1ccc(-c2ccccc2)n[nH]1 | 0.0631 µM [rising, partial curve, poor fit]
COc1ccc(-c2nnc(SCC(=O)N3CCc4ccccc4C3)o2)cc1 | 5.01 µM [falling, single point]
